The text below walks through data of article PMC2860243.

Chains of the proteins cited; added tags and fusions are not shown.
UniProt Q9R190: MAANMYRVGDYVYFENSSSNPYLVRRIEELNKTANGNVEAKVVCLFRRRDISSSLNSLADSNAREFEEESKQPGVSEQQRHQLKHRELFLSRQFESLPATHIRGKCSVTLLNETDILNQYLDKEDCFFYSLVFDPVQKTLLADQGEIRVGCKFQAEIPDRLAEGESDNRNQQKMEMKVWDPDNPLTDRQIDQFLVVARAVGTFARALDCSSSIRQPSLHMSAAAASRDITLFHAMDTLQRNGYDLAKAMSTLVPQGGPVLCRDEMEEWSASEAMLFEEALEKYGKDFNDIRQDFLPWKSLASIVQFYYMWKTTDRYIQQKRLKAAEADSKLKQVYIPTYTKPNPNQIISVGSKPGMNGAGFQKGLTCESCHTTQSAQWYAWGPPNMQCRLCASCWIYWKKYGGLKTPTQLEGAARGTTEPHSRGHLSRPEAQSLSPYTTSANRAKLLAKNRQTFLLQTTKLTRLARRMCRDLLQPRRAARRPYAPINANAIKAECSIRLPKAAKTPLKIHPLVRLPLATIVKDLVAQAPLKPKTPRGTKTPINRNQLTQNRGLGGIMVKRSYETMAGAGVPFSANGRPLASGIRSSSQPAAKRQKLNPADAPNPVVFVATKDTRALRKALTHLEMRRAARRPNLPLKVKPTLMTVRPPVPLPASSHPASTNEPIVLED
UniProt P20263: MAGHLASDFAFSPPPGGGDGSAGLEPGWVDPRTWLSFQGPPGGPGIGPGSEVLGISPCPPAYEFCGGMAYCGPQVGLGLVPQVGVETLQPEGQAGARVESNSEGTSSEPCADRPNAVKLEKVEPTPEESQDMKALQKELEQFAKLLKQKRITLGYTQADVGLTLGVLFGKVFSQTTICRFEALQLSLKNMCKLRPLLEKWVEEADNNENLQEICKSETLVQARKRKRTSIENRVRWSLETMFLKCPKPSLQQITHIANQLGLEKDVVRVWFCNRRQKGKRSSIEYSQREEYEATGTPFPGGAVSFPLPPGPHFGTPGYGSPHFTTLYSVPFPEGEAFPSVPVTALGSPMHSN
UniProt Q8BX22: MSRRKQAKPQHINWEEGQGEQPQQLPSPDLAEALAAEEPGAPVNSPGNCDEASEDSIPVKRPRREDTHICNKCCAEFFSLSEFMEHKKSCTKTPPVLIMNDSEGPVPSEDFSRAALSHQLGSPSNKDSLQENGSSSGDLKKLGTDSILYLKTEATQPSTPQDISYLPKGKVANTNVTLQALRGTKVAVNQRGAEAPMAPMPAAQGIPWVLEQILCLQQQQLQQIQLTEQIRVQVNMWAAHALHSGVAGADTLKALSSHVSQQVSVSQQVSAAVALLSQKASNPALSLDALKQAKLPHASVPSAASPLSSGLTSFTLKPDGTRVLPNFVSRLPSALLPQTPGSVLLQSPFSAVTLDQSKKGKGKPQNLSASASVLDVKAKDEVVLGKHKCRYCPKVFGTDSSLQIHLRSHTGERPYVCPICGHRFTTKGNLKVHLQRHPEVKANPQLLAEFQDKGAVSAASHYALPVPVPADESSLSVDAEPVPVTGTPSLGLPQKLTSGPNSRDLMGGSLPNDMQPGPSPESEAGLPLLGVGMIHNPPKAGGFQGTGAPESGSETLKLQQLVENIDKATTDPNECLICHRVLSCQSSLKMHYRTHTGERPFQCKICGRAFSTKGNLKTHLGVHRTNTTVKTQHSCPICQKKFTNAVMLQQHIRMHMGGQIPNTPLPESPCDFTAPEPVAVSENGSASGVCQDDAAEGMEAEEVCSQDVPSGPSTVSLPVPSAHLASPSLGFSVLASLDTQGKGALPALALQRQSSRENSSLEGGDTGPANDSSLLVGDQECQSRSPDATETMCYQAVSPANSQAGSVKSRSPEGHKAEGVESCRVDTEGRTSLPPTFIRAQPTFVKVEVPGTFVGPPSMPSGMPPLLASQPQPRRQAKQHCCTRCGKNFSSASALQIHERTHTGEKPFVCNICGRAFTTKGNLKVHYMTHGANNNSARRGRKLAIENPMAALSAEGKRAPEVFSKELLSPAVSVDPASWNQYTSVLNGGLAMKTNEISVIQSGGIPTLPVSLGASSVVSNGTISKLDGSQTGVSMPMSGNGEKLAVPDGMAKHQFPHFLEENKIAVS
UniProt Q6PDQ2: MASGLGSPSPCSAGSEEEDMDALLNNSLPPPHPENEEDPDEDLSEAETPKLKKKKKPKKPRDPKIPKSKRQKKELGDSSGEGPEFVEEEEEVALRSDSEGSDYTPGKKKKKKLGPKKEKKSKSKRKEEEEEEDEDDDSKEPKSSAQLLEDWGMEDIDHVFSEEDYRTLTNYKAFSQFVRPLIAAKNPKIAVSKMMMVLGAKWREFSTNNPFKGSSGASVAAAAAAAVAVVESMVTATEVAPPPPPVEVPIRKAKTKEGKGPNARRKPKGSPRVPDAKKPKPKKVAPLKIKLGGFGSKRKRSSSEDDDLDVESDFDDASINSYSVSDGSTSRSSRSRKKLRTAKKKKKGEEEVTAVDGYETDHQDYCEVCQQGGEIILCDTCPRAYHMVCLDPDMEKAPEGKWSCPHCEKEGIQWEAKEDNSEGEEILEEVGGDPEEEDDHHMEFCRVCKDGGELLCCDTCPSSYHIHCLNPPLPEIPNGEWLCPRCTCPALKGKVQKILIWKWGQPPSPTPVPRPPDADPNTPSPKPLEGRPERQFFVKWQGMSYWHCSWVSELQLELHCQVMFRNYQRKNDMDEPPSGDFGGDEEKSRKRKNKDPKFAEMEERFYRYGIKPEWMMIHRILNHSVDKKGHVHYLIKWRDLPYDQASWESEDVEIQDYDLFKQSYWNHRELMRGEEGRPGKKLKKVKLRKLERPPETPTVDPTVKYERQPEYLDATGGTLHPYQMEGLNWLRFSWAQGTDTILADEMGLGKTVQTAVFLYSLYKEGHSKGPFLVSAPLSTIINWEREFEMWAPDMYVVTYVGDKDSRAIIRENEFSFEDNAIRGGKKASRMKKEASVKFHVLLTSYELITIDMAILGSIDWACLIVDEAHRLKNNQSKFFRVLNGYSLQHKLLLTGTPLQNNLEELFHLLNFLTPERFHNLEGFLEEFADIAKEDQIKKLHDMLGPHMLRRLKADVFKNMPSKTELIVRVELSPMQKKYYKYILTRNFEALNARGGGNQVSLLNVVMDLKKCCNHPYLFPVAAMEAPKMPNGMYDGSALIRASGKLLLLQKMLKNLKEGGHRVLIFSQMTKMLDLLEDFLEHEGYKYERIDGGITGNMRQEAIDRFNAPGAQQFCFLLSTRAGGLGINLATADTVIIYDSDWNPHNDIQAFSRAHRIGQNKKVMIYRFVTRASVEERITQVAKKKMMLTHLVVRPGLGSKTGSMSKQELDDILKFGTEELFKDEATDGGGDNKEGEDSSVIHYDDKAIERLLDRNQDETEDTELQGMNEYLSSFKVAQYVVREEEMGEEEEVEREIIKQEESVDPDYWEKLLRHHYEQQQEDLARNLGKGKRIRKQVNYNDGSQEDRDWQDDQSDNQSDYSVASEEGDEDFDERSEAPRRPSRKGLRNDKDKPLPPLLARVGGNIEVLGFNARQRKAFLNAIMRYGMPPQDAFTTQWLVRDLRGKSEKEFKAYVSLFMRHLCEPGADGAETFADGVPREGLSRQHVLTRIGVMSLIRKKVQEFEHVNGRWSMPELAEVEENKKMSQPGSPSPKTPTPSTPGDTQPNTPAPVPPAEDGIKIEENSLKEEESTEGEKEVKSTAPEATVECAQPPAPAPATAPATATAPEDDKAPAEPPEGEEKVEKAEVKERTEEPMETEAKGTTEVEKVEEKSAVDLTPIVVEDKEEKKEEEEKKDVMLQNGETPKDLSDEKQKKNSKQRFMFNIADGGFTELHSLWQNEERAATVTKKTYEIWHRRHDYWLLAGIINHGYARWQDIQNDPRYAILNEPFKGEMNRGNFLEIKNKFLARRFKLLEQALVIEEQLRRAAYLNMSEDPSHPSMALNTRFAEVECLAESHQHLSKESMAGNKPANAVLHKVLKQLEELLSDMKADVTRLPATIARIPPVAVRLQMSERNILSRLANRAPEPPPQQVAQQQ
UniProt Q8K4B0: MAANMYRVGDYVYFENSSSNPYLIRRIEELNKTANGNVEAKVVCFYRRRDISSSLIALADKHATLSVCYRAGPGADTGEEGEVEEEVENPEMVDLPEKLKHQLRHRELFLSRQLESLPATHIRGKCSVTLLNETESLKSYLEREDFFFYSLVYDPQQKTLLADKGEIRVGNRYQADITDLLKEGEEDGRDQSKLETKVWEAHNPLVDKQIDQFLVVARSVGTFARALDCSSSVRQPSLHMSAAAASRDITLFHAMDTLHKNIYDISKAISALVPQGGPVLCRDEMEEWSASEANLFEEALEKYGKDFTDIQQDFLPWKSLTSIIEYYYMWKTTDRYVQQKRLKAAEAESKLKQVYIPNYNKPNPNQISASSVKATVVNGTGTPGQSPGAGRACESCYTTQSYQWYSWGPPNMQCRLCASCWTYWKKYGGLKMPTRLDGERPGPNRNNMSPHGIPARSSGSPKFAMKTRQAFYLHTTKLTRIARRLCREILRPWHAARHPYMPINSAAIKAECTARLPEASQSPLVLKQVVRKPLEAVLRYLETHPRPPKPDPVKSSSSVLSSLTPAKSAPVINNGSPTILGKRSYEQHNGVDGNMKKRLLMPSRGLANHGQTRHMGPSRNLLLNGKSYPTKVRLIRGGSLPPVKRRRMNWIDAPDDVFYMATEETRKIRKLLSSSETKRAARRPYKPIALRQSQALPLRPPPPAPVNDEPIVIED

No constants are given. Whether binding was seen depends on the method and setting. In cells and extracts the contact can be indirect. Some binding calls cover weakened binding; strength is not graded here. For some of these results: Where a sequence is shown, tags or fusion partners need not be part of it.

Test [1] deals with T1, GST-Esrrb (mouse) (UniProt Q61539).
T1 sequence: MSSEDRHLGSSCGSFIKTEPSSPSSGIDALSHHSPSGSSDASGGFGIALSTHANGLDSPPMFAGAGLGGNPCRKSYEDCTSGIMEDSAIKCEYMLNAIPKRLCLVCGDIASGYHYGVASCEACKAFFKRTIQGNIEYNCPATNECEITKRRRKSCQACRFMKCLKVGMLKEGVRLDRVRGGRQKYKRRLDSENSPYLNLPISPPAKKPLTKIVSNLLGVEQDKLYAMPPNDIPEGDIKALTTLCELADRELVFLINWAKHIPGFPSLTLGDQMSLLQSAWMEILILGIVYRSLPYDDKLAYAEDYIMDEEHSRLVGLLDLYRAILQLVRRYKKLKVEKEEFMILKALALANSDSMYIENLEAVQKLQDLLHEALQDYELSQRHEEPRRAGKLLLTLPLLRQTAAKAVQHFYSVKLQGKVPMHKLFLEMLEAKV
As to the kind of experiment: pull-down; GST fusion on glutathione-sepharose beads, equilibrated in C-100*, incubated with ESC nuclear extract (46C) for 2 hr at 4°C with Benzonase; western blot; only the target purified.

Test [2] deals with Mta2 (mouse (endogenous in mouse ESCs)) (UniProt Q9R190). In words: co-IP; antibody beads (20 μl) with 200 μl ESC nuclear extract, C-100* washes, 4°C, Benzonase where indicated; western blot.
Test [3] has as its target T2, F-Nac1 (mouse) (UniProt Q7TSZ8).
T2 sequence: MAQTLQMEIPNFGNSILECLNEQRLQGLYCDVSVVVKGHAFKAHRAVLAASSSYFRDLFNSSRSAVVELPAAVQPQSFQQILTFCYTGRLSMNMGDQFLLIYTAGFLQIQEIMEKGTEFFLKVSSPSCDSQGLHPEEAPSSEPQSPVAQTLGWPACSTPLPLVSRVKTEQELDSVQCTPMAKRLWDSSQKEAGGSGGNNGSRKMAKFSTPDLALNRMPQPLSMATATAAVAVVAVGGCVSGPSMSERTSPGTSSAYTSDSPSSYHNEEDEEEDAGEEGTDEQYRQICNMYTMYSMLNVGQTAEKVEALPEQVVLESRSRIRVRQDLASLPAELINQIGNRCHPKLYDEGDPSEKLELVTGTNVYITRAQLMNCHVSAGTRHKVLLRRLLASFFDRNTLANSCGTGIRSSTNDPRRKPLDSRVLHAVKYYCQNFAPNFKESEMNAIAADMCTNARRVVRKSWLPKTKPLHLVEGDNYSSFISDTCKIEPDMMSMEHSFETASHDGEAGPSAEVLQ
Described as above.

Test [4] concerns the target Oct4 (Pou5f1) (mouse (endogenous in 46C ESCs)) (UniProt P20263). The description is as above.
The target in test [5] is T3, GST-Dax1 (mouse) (UniProt Q61066).
T3 sequence: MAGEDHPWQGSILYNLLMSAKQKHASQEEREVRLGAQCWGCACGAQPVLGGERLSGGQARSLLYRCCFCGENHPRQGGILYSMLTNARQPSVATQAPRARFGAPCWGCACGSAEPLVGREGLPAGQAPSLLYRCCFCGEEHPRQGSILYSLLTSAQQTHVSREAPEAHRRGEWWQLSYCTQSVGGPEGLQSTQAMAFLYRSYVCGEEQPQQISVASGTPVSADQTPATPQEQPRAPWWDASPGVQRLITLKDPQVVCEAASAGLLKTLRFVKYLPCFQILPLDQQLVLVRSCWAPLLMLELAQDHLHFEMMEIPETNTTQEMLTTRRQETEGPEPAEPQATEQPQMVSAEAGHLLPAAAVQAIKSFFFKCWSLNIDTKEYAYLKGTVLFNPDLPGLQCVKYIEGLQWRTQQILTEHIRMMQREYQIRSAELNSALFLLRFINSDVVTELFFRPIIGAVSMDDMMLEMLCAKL
In words: pull-down; GST fusion on glutathione-sepharose beads, equilibrated in C-100*, incubated with ESC nuclear extract (46C) for 2 hr at 4°C with Benzonase; western blot; only the target purified.

The target of test [6] is Sall4 (mouse (endogenous in mouse ESCs)) (UniProt Q8BX22). As to the kind of experiment: co-IP; antibody beads (20 μl) with 200 μl ESC nuclear extract, C-100* washes, 4°C, Benzonase where indicated; western blot.

For Ep400 (from UniProt Q8CHI8 1-3072), the binding entry in test [1] is listed as “binds”.
For the molecule “Mi2β (Chd4) (from UniProt Q6PDQ2 1-1915)”, the binding result in test [2] is on record as “binds”.
The same measure, in the same setting: next, Mta1 (from UniProt Q8K4B0 1-715): “binds”.
Take Sall4 (from UniProt Q8BX22 1-1067): the binding result in test [3], in test [4], in test [5] and in test [1] was “binds” throughout.

B1: V5-tagged Zfp143 (protein, UniProt O70230 1-638)
chain: MLLAQINRDSQGMTEFPGGGMEAQHVTLCLTEAVTVADGDNLENMEGVSLQAVTLADGSTAYIQHNSKDGRLIDGQVIQLEDGSAAYVQHVPIPKSTGDSLRLEDGQAVQLEDGTTAFIHHTSKDSYDQSSLQAVQLEDGTTAYIHHAVQVPQSDTILAIQADGTVAGLHTGDATIDPDTISALEQYAAKVSIDGSDGVTSTGMIGENEQEKKMQIVLQGHATRVTPKSQQSGEKAFRCKYDGCGKLYTTAHHLKVHERSHTGDRPYQCEHSGCGKAFATGYGLKSHFRTHTGEKPYRCSEDNCTKSFKTSGDLQKHIRTHTGERPFKCPIEGCGRSFTTSNIRKVHIRTHTGERPYYCTEPGCGRAFASATNYKNHVRIHTGEKPYVCTVPGCDKRFTEYSSLYKHHVVHTHSKPYNCNHCGKTYKQISTLAMHKRTAHNDTEPIEEEQEAFFEPPPGQGDDVLKGSQITYVTGVDGEDIVSTQVATVTQSGLSQQVTLISQDGTQHVNISQADMQAIGNTITMVTQDGTPITVPTHDAVISSAGTHSVAMVTAEGTEGQQVAIVAQDLAAFHTASSEMGHQQHSHHLVTTETRPLTLVATSNGTQIAVQLGEQPSLEEAIRIASRIQQGETPGLDD
As to B1, the binding entry in test [6] is on record as “binds”.

B2: V5-Dax1 (protein, UniProt Q61066 1-472)
chain: T3 sequence
As to B2, the binding result in test [1] is on record as “binds”.

B3: Sall1 (protein, UniProt Q9ER74 1-1322)
chain: MSRRKQAKPQHFQSDPEVASLPRRDGDTEKGQPSRPTKSKDAHVCGRCCAEFFELSDLLLHKKSCTKNQLVLIVNESPASPAKTFPPGPSLNDPDDQMKDAANKADQEDCSDLSEPKGLDREESMEVEVPVATTTTTTTGGSGGSGGSTLSGVTNITTPSCHSGCSSGTSAITTSLPQLGDLTTLGNFSVINSNVIIENLQSTKVAVAQFSQEARCGGASGGKLLISTLMEQLLALQQQQIHQLQLIEQIRHQILLLASQSADLPAAPSIPSQGTLRTSANPLTTLSSHLSQQLAVAAGLAQSLASQSANISGVKQLPHVQLPQSSSGTSIVPPSGGTSPNMSIVTAAVPTPSSEKVASNAGASHVSSPAVSASSSPAFAISSLLSPESNPLLPQPTPANAVFPTPLPNIATTAEDLNSLSALAQQRKSKPPNVTAFEAKSTSDEAFFKHKCRFCAKVFGSDSALQIHLRSHTGERPFKCNICGNRFSTKGNLKVHFQRHKEKYPHIQMNPYPVPEHLDNVPTSTGIPYGMSIPSEKPVTSWLDTKPVLPTLTTSVGLPLPPTLPSLTPFIKTEEPAPIPISHSAASPQGSVKSDSGAPDLATRNPSGVPEEVEGSAVPPFGGKGEESNMASSAVPTAGNSTLNSPVADGGPGGTTFTNPLLPLMSEQFKAKFPFGGLLDSAQASETSKLQQLVENIDKKATDPNECIICHRVLSCQSALKMHYRTHTGERPFKCKICGRAFTTKGNLKTHYSVHRAMPPLRVQHSCPICQKKFTNAVVLQQHIRMHMGGQIPNTPVPDNYPESMESDTGSFDEKNFDDLDNFSDENMEECPEGSIPDTPKSADASQDSLSSSPLPLEMSSIAALENQMKMINAGLAEQLQASLKSVENGSMEGDVLTNDSSSVGGDMESQSAGSPAISESTSSMQALSPSNSTQEFHKSPGMEEKPQRVGPGEFANGLSPTPVNGGALDLTSSHAEKIIKEDSLGILFPFRDRGKFKNTACDICGKTFACQSALDIHYRSHTKERPFICTVCNRGFSTKGNLKQHMLTHQMRDLPSQLFEPSSNLGPNQNSAVIPANSLSSLIKTEVNGFVHVSPQDSKDAPTSHVPQGPLSSSATSPVLLPALPRRTPKQHYCNTCGKTFSSSSALQIHERTHTGEKPFACTICGRAFTTKGNLKVHMGTHMWNSTPARRGRRLSVDGPMTFLGGNPVKFPEMFQKDLAARSGSGDPSSFWNQYTAALSNGLAMKANEISVIQNGGIPPIPGSLGSGSSPISGLTGNVEKLGNSEPSAPLAGLEKMASSENGTNFRFTRFVEDSKEIVTS
B3: the binding result in test [4], in test [6] and in test [5] was “binds” each time.

B4: FLAG-tagged Tcfcp2l1 (F-Tcfcp2l1) (protein, UniProt Q3UNW5 1-479)
chain: MLFWHTQPEHYNQHNSGSYLRDVLALPIFKQEEPQLSPENGARLPPLQYVLCAATSPAVKLHEETLTYLNQGQSYEIRLLENRKLGDFQDLNTKYVKSIIRVVFHDRRLQYTEYQQLEGWRWSRPGDRILDIDIPLSVGILDPRASPTQLNAVEFLWDPSKRASAFIQVHCISTEFTPRKHGGEKGVPFRVQIDTFKQNESGDYSEHLHSASCQIKVFKPKGADRKQKTDREKMEKRTAQEKEKYQPSYETTILTECSPWPDVPYQANNTPSPSYNGSPNSFGLREGNSSPNHPVEPLPLGSDHLLPSASIQDAQQWLHRNRFSQFCWLFASFSGADLLKMSRDDLVQVCGPADGIRLFNAIKGRNVRPKMTIYVCQELEQNQLPLPQKQDDSGDNSLCVYHAIFLEELTTLELTEKIASLYSIPPQHIHRVYRQGPAGIHVVVSNEMVQNFQDESCFILSTLKAESNDGYHIILKCGL
Turning to B4, in test [1], the binding result was “binds”.
